Test results published in PMC6052109.
Results are given in words; binding and its absence hold for the method and conditions named. In cells and extracts the contact can be indirect. Some results given as binding are weak or reduced against the parent protein; the word gives no strength. For some assays here: Sequences can lack the tags named with a protein.

Amino acid sequences for entries named in this document (tags omitted). A change or cut given only in a name is not applied to a line headed by its entry. Chains listed by the source or under a name are the forms on record and can include a tag or linker.
UniProt Q8TDY2: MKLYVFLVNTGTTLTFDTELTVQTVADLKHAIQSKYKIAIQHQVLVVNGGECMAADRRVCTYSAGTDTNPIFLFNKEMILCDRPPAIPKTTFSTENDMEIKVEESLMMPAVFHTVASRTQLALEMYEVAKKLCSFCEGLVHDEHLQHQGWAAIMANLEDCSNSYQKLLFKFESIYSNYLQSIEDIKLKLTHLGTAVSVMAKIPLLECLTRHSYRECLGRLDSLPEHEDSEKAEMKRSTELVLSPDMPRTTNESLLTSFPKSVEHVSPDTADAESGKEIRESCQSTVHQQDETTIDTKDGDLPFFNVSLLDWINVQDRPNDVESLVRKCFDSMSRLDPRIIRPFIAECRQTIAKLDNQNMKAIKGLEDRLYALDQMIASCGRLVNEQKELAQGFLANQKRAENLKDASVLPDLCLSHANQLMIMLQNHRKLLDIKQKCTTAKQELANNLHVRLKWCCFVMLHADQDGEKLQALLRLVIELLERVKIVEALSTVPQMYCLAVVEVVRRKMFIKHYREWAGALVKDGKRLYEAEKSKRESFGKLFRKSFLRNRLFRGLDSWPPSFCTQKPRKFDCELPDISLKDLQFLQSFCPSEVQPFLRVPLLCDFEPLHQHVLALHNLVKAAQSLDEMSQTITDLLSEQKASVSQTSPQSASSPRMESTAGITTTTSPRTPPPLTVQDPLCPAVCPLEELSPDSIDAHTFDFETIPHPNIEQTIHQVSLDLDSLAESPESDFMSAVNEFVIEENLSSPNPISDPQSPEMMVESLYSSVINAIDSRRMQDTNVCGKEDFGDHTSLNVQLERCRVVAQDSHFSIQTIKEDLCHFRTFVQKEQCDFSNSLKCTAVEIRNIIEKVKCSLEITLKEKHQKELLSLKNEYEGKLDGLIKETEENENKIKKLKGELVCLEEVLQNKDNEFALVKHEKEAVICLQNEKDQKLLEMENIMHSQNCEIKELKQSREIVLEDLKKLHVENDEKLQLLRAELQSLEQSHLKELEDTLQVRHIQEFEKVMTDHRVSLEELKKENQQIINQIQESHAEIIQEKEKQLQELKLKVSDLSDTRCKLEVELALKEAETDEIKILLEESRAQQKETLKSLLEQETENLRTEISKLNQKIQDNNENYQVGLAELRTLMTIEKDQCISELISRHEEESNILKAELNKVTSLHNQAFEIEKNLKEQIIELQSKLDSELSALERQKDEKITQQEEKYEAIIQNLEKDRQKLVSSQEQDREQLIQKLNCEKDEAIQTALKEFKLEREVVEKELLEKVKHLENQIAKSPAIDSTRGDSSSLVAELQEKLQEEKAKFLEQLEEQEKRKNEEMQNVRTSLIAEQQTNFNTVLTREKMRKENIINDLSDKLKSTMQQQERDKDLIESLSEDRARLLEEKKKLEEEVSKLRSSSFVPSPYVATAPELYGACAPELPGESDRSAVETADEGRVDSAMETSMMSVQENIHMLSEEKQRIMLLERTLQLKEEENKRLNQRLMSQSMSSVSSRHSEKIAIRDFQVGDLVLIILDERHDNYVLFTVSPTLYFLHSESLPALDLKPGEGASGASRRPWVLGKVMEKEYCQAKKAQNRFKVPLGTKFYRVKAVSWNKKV
UniProt Q9ESK9: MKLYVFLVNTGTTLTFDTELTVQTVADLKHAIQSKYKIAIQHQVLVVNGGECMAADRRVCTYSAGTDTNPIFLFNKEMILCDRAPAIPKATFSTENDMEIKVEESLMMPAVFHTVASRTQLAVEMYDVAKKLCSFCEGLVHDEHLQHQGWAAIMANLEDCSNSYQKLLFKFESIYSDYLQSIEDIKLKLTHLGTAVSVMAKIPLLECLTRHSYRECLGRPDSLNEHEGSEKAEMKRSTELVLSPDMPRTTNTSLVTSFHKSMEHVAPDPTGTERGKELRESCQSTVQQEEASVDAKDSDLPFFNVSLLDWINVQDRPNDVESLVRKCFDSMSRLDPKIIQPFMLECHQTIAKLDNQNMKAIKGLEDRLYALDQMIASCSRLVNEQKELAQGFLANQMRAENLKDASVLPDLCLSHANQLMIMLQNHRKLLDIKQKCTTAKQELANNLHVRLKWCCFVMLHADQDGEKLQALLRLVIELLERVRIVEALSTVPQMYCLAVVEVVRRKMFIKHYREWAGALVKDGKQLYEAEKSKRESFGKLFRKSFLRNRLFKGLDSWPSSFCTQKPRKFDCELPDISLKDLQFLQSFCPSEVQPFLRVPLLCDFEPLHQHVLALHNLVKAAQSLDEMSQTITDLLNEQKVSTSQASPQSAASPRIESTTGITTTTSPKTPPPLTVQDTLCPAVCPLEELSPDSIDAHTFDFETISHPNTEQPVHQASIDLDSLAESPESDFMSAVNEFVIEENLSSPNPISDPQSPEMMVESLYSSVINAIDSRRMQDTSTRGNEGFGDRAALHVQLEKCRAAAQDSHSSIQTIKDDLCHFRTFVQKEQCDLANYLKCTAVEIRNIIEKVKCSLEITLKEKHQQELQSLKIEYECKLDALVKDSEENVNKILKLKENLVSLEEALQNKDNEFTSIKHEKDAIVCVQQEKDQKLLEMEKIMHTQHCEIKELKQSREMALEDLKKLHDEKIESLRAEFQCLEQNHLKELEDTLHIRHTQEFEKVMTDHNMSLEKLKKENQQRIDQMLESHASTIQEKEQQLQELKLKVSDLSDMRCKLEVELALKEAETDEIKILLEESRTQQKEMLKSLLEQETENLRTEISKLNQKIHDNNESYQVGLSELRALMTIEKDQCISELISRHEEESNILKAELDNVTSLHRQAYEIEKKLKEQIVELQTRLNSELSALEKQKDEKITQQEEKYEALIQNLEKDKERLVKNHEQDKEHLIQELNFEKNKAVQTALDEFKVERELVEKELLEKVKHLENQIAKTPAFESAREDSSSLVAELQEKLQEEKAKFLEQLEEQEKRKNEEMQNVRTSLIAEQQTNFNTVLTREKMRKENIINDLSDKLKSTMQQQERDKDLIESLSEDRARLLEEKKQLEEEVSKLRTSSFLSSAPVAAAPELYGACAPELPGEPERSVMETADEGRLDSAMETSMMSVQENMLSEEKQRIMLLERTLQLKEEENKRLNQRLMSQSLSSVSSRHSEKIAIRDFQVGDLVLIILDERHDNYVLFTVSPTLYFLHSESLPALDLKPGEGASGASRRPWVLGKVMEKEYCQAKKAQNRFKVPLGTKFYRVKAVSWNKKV
HA-Tbkbp1 1-330 (truncation mutant) (A2A9T0-2, form named): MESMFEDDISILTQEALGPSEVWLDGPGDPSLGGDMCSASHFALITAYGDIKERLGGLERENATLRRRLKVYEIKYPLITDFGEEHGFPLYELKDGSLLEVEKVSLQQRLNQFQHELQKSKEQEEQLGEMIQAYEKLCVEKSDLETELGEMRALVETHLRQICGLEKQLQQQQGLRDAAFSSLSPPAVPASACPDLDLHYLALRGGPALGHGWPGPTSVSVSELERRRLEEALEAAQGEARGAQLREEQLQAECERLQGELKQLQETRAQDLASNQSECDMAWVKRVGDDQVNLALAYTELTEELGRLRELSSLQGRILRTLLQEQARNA
HA-Tbkbp1 (TBK-binding protein 1, mouse, wild type) (A2A9T0-2, form named): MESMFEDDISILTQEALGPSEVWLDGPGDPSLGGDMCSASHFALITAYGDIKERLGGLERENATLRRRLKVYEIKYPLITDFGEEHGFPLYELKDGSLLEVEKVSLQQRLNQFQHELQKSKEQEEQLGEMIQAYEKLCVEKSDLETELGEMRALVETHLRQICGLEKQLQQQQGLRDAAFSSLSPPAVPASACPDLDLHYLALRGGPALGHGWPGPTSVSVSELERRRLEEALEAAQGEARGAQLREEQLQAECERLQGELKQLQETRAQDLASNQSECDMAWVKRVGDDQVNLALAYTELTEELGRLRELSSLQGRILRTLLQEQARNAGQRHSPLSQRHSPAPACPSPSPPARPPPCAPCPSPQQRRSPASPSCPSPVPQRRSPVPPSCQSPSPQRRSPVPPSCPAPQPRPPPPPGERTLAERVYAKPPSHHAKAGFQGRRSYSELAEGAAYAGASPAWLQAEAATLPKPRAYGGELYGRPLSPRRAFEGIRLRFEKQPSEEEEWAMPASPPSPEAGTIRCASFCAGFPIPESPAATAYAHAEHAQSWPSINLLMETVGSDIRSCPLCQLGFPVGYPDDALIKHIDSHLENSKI
HA-Tbkbp1 Y298A (A2A9T0-2, form named): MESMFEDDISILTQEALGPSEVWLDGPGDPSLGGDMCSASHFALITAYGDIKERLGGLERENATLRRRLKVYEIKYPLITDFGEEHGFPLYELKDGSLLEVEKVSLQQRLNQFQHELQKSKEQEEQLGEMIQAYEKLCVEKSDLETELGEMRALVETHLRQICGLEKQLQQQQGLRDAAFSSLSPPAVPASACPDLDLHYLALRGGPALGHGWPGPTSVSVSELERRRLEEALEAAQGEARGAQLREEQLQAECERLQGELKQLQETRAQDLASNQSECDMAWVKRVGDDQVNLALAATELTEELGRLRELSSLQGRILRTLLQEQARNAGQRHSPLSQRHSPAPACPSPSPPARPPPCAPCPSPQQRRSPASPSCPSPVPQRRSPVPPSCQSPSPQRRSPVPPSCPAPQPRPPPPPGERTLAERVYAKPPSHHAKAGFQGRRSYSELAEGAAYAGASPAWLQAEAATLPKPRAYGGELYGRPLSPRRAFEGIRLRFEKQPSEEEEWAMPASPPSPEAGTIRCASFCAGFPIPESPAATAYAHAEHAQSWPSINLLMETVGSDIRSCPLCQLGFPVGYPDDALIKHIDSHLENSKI

T1: Ulk1, endogenous in NKT hybridoma cells (mouse (endogenous in NKT1.2 hybridoma)) (UniProt O70405)
T1 sequence: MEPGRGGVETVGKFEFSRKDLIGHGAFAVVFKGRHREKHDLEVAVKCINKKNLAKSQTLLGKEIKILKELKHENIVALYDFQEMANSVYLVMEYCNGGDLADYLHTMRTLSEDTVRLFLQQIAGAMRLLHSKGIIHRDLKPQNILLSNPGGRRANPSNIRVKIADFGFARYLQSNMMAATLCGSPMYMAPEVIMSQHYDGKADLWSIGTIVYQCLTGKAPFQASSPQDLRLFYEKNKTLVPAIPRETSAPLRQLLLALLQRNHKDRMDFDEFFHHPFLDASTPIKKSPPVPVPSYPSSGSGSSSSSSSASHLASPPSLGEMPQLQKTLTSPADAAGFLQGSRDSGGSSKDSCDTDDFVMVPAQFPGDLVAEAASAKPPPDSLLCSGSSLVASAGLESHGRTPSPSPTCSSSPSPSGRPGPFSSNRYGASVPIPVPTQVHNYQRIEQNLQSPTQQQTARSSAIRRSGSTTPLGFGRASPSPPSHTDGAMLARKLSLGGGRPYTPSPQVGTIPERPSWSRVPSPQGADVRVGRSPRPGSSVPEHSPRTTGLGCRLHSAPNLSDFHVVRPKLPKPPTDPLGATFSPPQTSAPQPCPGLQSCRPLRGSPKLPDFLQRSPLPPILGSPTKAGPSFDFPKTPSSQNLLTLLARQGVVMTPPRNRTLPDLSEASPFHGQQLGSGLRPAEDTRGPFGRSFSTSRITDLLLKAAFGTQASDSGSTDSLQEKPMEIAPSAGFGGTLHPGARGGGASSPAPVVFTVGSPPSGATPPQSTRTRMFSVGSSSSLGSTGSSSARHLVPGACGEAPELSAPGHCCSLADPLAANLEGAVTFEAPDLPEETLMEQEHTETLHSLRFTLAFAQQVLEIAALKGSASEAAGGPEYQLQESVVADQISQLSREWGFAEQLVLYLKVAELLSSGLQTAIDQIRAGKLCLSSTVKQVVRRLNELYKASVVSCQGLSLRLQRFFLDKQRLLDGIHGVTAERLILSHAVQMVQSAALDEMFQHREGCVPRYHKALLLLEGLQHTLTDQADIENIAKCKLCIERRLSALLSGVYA

T2: Myc-Ulk1 (UNC51-like kinase 1) (UniProt O70405)
T2 sequence: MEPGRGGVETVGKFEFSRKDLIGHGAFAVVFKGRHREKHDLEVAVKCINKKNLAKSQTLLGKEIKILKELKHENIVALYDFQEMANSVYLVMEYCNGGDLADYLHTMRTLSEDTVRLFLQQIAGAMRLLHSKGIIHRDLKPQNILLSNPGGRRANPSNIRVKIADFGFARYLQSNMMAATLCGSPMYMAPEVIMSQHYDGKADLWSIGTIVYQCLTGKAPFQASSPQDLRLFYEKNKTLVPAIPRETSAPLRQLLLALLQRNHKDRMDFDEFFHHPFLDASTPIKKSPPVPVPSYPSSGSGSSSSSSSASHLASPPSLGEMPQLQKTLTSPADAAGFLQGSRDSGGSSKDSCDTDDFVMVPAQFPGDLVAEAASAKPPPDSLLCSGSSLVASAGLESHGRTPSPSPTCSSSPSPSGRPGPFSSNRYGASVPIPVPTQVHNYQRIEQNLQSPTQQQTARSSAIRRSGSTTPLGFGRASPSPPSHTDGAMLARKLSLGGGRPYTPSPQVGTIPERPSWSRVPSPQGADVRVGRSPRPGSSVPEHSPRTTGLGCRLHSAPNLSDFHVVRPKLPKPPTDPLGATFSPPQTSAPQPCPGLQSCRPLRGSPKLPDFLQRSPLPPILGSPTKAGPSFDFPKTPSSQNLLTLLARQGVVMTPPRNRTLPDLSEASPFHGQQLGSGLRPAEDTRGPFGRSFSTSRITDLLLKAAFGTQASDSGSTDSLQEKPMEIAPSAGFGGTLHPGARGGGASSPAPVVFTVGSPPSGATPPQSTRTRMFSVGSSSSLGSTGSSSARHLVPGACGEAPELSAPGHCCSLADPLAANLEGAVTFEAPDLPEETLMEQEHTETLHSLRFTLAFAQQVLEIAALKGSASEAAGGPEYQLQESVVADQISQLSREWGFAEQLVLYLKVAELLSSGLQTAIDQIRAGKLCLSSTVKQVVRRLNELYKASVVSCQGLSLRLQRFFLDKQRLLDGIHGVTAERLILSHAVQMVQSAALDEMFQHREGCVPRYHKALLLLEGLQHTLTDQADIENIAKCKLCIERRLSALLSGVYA


Key:
[1] = biological target: T1, Ulk1, endogenous in NKT hybridoma cells (mouse (endogenous in NKT1.2 hybridoma)); assay: co-IP; endogenous proteins, lysates of NKT hybridoma cells (control shRNA or Tbkbp1 shRNA), untreated or stimulated with IL-15 (rapamycin in one panel); IP with anti-FIP200 or anti-Ulk1, control IgG as negative control; immunoblot
[2] = biological target: T2, Myc-Ulk1 (UNC51-like kinase 1); assay: co-IP; lysates of HEK293 cells transfected with the indicated expression vectors (HA-Tbkbp1 or its mutants, Myc-Ulk1, 3xFLAG-FIP200, Flag-Ankrd28); immunoblot
3xFLAG-FIP200 = 3xFLAG-FIP200 (UniProt Q8TDY2); assay: as above
[3] = biological target: FIP200, endogenous in NKT hybridoma cells (mouse (endogenous in NKT1.2 hybridoma)) (UniProt Q9ESK9); assay: co-IP; endogenous proteins, lysates of NKT hybridoma cells (control shRNA or Tbkbp1 shRNA), untreated or stimulated with IL-15 (rapamycin in one panel); IP with anti-FIP200 or anti-Ulk1, control IgG as negative control; immunoblot
[4] = biological target: HA-Tbkbp1 (TBK-binding protein 1, mouse, wild type) (mouse) (UniProt A2A9T0); assay: co-IP; lysates of HEK293 cells transfected with the indicated expression vectors (HA-Tbkbp1 or its mutants, Myc-Ulk1, 3xFLAG-FIP200, Flag-Ankrd28); immunoblot

Row | Molecule | binding [1] | binding [2] | other results
1 | FIP200, endogenous in NKT hybridoma cells (from UniProt Q9ESK9 1-1588) | binds | – | –
2 | HA-Tbkbp1 1-330 (truncation mutant) (from UniProt A2A9T0-2 1-330) (domain or fragment) | – | binds | –
3 | HA-Tbkbp1 (TBK-binding protein 1, mouse, wild type) (from UniProt A2A9T0-2 1-596) | – | binds | binding (3xFLAG-FIP200): binds
4 | HA-Tbkbp1 Y298A (from UniProt A2A9T0-2 1-596) | – | binds | –
5 | Tbkbp1, endogenous in NKT hybridoma cells (from UniProt A2A9T0-2 1-596) | binds | – | binding [3]: binds
6 | Flag-tagged Ankrd28 (protein, UniProt O15084 1-1053) MAFLKLRDQPSLVQAIFNGDPDEVRALIFKKEDVNFQDNEKRTPLHAAAYLGDAEIIELLILSGARVNAKDSKWLTPLHRAVASCSEEAVQVLLKHSADVNARDKNWQTPLHIAAANKAVKCAEALVPLLSNVNVSDRAGRTALHHAAFSGHGEMVKLLLSRGANINAFDKKDRRAIHWAAYMGHIEVVKLLVSHGAEVTCKDKKSYTPLHAAASSGMISVVKYLLDLGVDMNEPNAYGNTPLHVACYNGQDVVVNELIDCGAIVNQKNEKGFTPLHFAAASTHGALCLELLVGNGADVNMKSKDGKTPLHMTALHGRFSRSQTIIQSGAVIDCEDKNGNTPLHIAARYGHELLINTLITSGADTAKRGIHGMFPLHLAALSGFSDCCRKLLSSGFDIDTPDDFGRTCLHAAAAGGNLECLNLLLNTGADFNKKDKFGRSPLHYAAANCNYQCLFALVGSGASVNDLDERGCTPLHYAATSDTDGKCLEYLLRNDANPGIRDKQGYNAVHYSAAYGHRLCLQLIASETPLDVLMETSGTDMLSDSDNRATISPLHLAAYHGHHQALEVLVQSLLDLDVRNSSGRTPLDLAAFKGHVECVDVLINQGASILVKDYILKRTPIHAAATNGHSECLRLLIGNAEPQNAVDIQDGNGQTPLMLSVLNGHTDCVYSLLNKGANVDAKDKWGRTALHRGAVTGHEECVDALLQHGAKCLLRDSRGRTPIHLSAACGHIGVLGALLQSAASMDANPATADNHGYTALHWACYNGHETCVELLLEQEVFQKTEGNAFSPLHCAVINDNEGAAEMLIDTLGASIVNATDSKGRTPLHAAAFTDHVECLQLLLSHNAQVNSVDSTGKTPLMMAAENGQTNTVEMLVSSASAELTLQDNSKNTALHLACSKGHETSALLILEKITDRNLINATNAALQTPLHVAARNGLTMVVQELLGKGASVLAVDENGYTPALACAPNKDVADCLALILATMMPVSSSSPLSSLTFNAINRYTNTSKTVSFEALPIMRNEPSSYCSFNNIGGEQEYLYTDVDELNDSDSETY | – | – | binding [4]: binds
